According to the M2OR odorant receptor database:
This is a selection; strong and weak results do not stand in their true shares. The calls were merged from several studies; some rest on single wells. This is one part of the list.

How the values were obtained:
Details in all cases: stereoisomer not certain
[1] = molecular target: T1, OR7G1 (Homo sapiens) (UniProt Q8NGA0)
T1 sequence (whole entry): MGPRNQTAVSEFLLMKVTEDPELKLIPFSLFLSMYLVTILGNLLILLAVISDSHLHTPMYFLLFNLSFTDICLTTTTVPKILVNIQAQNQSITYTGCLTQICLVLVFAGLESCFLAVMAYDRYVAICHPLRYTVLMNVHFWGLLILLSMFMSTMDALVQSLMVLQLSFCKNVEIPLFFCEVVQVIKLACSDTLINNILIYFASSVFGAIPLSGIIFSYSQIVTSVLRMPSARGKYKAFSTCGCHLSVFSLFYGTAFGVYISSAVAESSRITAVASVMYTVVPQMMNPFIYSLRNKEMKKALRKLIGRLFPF
Method in brief: (§1)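 Values were gathered from published papers (main text and supplementary material), with extra details requested from the original authors when needed, and checked for typos and inconsistencies. Each receptor–molecule pair is called responsive (active) if the original authors judged the measured signal statistically different from baseline, and non-responsive (inactive) otherwise. Assay methods varied by source, often transient mammalian cell-line luciferase assays. Recorded details include cell line, G-protein, co-transfected protein and tags.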

[2] = molecular target: T2, OR7G2 (Homo sapiens) (UniProt Q8NG99)
T2 sequence (whole entry): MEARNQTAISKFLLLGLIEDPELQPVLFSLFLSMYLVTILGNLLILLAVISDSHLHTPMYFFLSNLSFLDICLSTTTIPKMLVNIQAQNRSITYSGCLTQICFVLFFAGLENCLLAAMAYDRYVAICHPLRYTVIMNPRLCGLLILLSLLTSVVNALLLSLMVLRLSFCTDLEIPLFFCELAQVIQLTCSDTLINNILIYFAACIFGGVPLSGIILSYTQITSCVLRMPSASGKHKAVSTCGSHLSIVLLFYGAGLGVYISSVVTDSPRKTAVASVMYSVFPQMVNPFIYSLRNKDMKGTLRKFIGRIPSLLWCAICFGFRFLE
Method in brief: as §1

[3] = system: T3, OR7G2
T3 sequence (whole entry): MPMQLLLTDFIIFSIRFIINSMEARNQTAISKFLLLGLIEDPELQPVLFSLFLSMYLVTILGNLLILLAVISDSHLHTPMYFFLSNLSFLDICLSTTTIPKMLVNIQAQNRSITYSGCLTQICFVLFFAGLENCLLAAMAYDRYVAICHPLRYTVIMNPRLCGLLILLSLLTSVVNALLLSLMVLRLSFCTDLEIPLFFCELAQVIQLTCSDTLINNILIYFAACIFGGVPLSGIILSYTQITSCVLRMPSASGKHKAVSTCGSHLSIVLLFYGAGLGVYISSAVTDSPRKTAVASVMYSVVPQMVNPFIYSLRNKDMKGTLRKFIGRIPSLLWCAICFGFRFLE
Method in brief: as §1

[4] = molecular target: T4, OR7G3 (Homo sapiens) (UniProt Q8NG95)
T4 sequence (whole entry): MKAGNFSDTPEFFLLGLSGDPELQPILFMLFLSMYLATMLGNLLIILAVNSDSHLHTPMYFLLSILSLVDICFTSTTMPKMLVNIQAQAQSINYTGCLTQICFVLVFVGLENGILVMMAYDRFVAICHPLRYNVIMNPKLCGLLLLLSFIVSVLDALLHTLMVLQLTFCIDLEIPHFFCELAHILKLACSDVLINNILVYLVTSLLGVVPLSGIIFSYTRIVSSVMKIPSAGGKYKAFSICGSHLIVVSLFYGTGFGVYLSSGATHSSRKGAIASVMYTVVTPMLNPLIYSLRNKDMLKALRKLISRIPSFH
Method in brief: as §1

[5] = system: T5, OR7D4
T5 sequence (whole entry): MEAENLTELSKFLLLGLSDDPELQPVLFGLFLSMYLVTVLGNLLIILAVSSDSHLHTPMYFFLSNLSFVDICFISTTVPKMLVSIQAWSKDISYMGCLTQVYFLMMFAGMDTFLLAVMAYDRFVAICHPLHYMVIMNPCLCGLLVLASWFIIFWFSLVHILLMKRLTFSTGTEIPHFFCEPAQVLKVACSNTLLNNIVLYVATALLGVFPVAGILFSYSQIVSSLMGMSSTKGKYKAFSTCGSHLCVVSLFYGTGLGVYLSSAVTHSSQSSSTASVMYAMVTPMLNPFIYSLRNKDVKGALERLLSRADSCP
Method in brief: as §1

Measured: odorant receptor agonist call

CC1=NC(C)SC1C (stereo not drawn)
not listed: [5]
inactive: all other assays above

C=CCc1ccc(OC(C)=O)c(OC)c1
active: [4]
inactive: all other assays above

CC(C)=CCCC(C)=CC=O
inactive: all assays above

CCCCCC(C)=O
inactive: [1] | [2] | [3]
active: [4]

CCCCCCCC=CC=O
inactive: all assays above

CCCCCCCCCC=O
inactive: all assays above

CC1CCC(C(C)C)C(O)C1 (stereo not drawn)
active: [2]
inactive: all other assays above

CCC=CCCO
inactive: all assays above

CC(C)CCC(=O)O
inactive: all assays above
